We go through three molecules from doi:10.1101/2021.04.22.440930.

Chains of the proteins cited; added tags and fusions are not shown. Lines headed by an entry give the natural chain unless they say otherwise; changes in a name come on top. A line that says so, or that is headed by a name, gives the form on record, which may keep a tag or linker.
UniProt Q13283: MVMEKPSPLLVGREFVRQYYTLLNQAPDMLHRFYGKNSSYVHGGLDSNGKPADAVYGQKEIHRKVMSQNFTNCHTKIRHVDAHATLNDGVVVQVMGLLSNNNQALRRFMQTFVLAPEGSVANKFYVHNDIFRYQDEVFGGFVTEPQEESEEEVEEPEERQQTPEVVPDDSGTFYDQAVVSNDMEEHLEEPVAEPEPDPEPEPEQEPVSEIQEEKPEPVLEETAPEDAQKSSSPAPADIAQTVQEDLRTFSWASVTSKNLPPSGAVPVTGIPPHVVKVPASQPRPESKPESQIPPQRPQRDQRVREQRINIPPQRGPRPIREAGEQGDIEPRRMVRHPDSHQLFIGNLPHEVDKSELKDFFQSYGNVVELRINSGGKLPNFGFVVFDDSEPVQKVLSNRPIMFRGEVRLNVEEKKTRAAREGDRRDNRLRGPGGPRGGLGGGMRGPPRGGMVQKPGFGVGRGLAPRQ
GFP-G3BP1 6KR (Q13283, form named): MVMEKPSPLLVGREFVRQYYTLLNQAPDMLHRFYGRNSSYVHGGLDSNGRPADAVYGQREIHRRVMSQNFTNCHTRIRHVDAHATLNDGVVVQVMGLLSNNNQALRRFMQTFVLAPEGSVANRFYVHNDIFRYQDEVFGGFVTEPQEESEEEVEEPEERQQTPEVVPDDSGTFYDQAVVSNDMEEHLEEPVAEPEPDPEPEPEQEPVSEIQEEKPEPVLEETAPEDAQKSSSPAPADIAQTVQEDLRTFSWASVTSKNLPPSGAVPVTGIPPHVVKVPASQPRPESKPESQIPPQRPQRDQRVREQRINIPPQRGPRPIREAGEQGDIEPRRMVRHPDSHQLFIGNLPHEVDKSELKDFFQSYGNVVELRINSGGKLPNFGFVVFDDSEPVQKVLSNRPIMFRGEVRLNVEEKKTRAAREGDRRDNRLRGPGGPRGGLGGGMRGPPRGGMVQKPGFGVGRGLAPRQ

Assay in all cases: co-IP
One experiment deals with GFP-G3BP1 6KR (UniProt Q13283).
Experiment [1] deals with G3BP1 (endogenous) (human (endogenous in U2OS)) (UniProt Q13283).
Another experiment addresses GFP-G3BP1 WT (UniProt Q13283).

These are yes or no findings as the source states them, for the method shown. In cells and extracts the contact can be indirect. Some binding calls cover weakened binding; strength is not graded here.

Take “valosin-containing protein (VCP), endogenous (from UniProt P55072 1-806) (enzyme)”: the binding entry with GFP-G3BP1 6KR was “binds weakly”.

B1: ZFAND1 (protein, UniProt Q8TCF1 1-268)
chain: MAELDIGQHCQVEHCRQRDFLPFVCDDCSGIFCLEHRSRESHGCPEVTVINERLKTDQHTSYPCSFKDCAERELVAVICPYCEKNFCLRHRHQSDHECEKLEIPKPRMAATQKLVKDIIDSKTGETASKRWKGAKNSETAAKVALMKLKMHADGDKSLPQTERIYFQVFLPKGSKEKSKPMFFCHRWSIGKAIDFAASLARLKNDNNKFTAKKLRLCHITSGEALPLDHTLETWIAKEDCPLYNGGNIILEYLNDEEQFCKNVESYLE
As to B1, the binding result in experiment [1] was “no binding”.

B2: FAS-associated factor 2 (FAF2), endogenous (protein, UniProt Q96CS3 1-445)
chain: MAAPEERDLTQEQTEKLLQFQDLTGIESMDQCRHTLEQHNWNIEAAVQDRLNEQEGVPSVFNPPPSRPLQVNTADHRIYSYVVSRPQPRGLLGWGYYLIMLPFRFTYYTILDIFRFALRFIRPDPRSRVTDPVGDIVSFMHSFEEKYGRAHPVFYQGTYSQALNDAKRELRFLLVYLHGDDHQDSDEFCRNTLCAPEVISLINTRMLFWACSTNKPEGYRVSQALRENTYPFLAMIMLKDRRMTVVGRLEGLIQPDDLINQLTFIMDANQTYLVSERLEREERNQTQVLRQQQDEAYLASLRADQEKERKKREERERKRRKEEEVQQQKLAEERRRQNLQEEKERKLECLPPEPSPDDPESVKIIFKLPNDSRVERRFHFSQSLTVIHDFLFSLKESPEKFQIEANFPRRVLPCIPSEEWPNPPTLQEAGLSHTEVLFVQDLTDE
In the case of B2, the binding entry (in experiment [1]; with GFP-G3BP1 WT) was “binds” each time.
